These are yes or no findings as the source states them, for the method shown. Some results given as binding are weak or reduced against the parent protein; the word gives no strength. For some assays here: Sequences can lack the tags named with a protein.
Assays:
[1] = molecular target: T1, GST-tagged CARM1 (UniProt Q86X55); experiment: pull-down; purified full length (FL) or region 3-deleted (Δ3) CARM1 mixed with GATAD2A or MED12 C-terminus (Supplementary Figure S1L); details not shown; both purified
T1 sequence: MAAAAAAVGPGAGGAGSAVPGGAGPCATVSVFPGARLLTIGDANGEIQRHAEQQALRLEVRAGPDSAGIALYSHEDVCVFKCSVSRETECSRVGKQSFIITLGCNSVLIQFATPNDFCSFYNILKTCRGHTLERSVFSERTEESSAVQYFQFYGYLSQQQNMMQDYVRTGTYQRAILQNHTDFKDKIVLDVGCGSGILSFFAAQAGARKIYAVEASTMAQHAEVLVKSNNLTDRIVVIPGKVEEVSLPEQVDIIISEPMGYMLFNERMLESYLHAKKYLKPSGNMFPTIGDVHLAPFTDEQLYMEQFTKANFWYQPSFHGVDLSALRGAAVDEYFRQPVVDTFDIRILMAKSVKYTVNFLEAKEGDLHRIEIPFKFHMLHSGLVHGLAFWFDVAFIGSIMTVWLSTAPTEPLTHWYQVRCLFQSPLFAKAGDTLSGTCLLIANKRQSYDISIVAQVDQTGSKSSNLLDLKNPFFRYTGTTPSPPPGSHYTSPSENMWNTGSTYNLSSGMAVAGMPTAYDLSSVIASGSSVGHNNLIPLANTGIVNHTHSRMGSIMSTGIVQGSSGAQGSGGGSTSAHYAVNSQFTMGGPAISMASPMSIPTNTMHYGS

Sequences of proteins named here, by UniProt entry; tags and fusion partners are left off. Residues count along the entry.
UniProt Q93074, residues 1616-2177: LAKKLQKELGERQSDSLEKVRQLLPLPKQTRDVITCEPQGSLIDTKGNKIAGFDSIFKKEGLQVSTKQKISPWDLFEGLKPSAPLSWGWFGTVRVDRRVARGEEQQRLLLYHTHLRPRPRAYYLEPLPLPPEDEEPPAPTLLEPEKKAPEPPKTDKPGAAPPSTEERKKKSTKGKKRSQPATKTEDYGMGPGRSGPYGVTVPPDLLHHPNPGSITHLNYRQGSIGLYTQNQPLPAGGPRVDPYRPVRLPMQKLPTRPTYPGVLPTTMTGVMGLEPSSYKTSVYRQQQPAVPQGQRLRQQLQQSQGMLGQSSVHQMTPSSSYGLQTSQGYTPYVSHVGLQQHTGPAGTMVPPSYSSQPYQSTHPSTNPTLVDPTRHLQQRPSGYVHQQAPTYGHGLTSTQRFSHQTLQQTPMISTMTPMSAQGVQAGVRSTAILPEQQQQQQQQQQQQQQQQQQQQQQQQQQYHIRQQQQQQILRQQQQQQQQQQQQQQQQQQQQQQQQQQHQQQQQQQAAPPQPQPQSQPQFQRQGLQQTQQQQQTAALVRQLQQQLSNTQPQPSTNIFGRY

[2] = molecular target: T2, purified region 3-deleted (Δ3) CARM1 (UniProt Q86X55); experiment: as above
T2 sequence: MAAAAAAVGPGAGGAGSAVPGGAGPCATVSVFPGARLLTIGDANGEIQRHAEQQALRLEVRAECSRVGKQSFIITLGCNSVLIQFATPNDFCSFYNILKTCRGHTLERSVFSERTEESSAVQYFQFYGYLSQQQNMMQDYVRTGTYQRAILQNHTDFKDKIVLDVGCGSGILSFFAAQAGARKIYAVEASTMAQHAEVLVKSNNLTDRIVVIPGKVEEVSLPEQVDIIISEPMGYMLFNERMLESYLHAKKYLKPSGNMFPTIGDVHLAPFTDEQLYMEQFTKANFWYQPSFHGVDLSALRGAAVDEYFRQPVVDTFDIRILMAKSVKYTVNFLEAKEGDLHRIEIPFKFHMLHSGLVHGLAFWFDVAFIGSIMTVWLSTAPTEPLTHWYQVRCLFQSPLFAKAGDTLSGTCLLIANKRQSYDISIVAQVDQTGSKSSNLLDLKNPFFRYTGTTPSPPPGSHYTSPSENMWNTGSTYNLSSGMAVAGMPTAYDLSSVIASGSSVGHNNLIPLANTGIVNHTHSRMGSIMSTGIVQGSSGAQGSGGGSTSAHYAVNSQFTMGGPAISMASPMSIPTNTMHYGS

binding [1]: binds
binding [2]: binds
Substance: MED12 C-terminus (aa 1616–2177) (from UniProt Q93074 1616-2177) (domain or fragment)
